Construct, isoform or probe ends are uncertain for at least one entry. The comparison behind a weaker result is the experiment's own reference, which may not be listed here. At least one verdict was read from the data and is not stated in words by the source. Tags and fusion partners may be left off the protein sequences shown.
Molecular target: T1, DrHU T37E (Deinococcus radiodurans R1 (ATCC13939)) (UniProt Q9RZ89)
T1 sequence (looked up): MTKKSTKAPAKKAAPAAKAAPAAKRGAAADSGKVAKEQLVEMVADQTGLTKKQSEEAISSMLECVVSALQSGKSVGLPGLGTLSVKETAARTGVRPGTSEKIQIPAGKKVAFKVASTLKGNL
Assay: hydroxyl radical protection
Conditions: weaker protection than WT, recombinant protein, residues 1-122, protein details: N-terminal His-MBP (pET28a-HMT), removed by TEV

AAGCTTGCCACCATGTACCCATACGACGTACCAGATTACGCTTTCATCAACGGCTACGCCCCTCAGAATCTGAGCATCAGAGGCGAGTACCAGATCAACTTTCACATCGTGAACTGGAATCTGTCCAACCCTGACCCCACCTCCAGCGAGTACATCACCCTGCTGAGAGATATCCAGGACAAGGTGACAACACTGTACAAGGGCTCCCAGCTGCACGATACCTTCAGATTTTGCCTGGTGACAAATCTGACAATGGATTCCGTGCTGGTGACCGTGAAGGCCCTGTTTAGCTCCAACCTGGACCCCTCCCTGGTGGAGCAGGTGTTCCTGGACAAGACACTGAACGCCAGCTTTCACTGGCTGGGCTCCACCTACCAGCTGGTGGACATCCACGTGACAGAGATGGAGAGCAGCGTGTACCAGCCTACCAGCTCCTCCAGCACCCAGCACTTTTACCTGAATTTCACAATCACCAACCTGCCTTACAGCCAGGACAAGGCCCAGCCCGGCACAACCAACTACCAGAGAAACAAGAGGAATATCGAGGACGCCCTGAATCAGCTGTTCAGGAACTCCAGCATCAAGTCCTACTTTTCCGATTGCCAGGTGTCCACCTTTAGAAGCGTGCCTAATAGACACCACACCGGCGTGGATAGCCTGTGTAATTTTTCCCCCCTGGCCAGAAGAGTGGACAGGGTGGCCATCTACGAGGAGTTTCTGAGAATGACCAGAAACGGCACCCAGCTGCAGAATTTTACCCTGGATAGAAGCTCCGTGCTGGTCGATGGCTACAGCCCTAACAGAAATGAGCCCCTGACCGGCAATTCCGATCTGCCTTTCTGGGCCGTGATCCTGATCGGCCTGGCCGGCCTGCTGGGCGTTATCACATGCCTGATCTGTGGCGTGCTGGTGACAACAAGAAGGAGGAAGAAGGAGGGCGAGTACAATGTGCAGCAGCAGTGCCCCGGCTACTACCAGTCCCACCTGGACCTGGAGGATCTGCAGGATTACAAGGACGACGATGACAAG (double strand) [1-kb duplex DNA]
binding result: binds more weakly

— publication PMC9900698, “Phosphorylation Regulation of a Histone-like HU Protein from Deinococcus radiodurans”
